The supplement of paper PMC12067093, “Discovery and optimisation of a covalent ligand for TRIM25 and its application to targeted protein ubiquitination” (Chemical Science, 2025)
The other results are listed elsewhere or left out.

Amino acid sequences for entries named in this document (tags omitted). A change or cut given only in a name is not applied to a line headed by its entry.
UniProt Q9H936: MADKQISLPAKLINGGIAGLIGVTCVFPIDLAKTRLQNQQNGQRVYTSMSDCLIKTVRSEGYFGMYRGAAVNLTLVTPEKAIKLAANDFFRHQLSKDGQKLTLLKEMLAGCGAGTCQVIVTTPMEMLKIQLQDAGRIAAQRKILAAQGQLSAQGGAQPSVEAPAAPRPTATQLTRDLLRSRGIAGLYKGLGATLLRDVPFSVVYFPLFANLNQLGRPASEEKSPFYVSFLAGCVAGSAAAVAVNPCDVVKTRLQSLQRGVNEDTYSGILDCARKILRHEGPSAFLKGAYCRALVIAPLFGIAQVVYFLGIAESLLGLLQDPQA
UniProt Q9UHJ3: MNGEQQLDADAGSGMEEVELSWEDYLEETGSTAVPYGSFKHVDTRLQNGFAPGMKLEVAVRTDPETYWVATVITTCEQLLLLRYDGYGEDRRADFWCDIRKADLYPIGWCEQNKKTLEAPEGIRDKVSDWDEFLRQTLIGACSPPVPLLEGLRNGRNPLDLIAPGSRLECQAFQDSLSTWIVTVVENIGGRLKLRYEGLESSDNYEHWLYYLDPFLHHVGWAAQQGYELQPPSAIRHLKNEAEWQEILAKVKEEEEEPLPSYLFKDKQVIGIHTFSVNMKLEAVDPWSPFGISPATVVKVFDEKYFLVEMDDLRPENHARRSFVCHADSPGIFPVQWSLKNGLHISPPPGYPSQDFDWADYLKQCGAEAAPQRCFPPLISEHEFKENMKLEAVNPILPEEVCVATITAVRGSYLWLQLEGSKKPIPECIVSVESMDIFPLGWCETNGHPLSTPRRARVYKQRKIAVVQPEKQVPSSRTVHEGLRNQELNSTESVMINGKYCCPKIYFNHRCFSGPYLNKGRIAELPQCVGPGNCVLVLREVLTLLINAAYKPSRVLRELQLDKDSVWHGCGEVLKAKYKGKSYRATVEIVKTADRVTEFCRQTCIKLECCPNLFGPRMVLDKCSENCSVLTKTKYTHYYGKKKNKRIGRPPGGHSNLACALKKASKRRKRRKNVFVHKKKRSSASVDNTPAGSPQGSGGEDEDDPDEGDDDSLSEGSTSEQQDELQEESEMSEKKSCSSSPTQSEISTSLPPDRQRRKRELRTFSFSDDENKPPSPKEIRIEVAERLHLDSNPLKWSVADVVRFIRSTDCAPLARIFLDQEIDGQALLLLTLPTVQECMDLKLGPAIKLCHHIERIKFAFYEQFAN
UniProt Q14141: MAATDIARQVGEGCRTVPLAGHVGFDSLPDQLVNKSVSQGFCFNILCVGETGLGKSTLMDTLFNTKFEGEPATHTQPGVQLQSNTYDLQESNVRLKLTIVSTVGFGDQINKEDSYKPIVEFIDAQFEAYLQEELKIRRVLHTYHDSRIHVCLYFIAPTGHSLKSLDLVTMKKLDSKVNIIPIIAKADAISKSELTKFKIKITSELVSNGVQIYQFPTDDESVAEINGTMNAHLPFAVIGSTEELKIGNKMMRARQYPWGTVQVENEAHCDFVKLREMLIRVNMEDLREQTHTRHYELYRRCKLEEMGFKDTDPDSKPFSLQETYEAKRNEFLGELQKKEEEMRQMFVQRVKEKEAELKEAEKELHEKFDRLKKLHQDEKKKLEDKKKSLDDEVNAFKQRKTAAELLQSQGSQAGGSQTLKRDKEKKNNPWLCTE
UniProt Q15019: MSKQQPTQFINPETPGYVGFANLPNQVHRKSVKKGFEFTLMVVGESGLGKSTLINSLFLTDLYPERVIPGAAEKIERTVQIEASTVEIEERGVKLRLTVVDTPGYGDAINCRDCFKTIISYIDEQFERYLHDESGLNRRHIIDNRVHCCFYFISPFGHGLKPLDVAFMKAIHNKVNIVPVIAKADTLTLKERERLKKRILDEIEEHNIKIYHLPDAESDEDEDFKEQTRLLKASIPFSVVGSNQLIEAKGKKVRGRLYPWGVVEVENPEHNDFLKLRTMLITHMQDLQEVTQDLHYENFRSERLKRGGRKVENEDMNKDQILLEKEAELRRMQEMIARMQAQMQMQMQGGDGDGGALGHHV
UniProt P53007, whole entry, looked up: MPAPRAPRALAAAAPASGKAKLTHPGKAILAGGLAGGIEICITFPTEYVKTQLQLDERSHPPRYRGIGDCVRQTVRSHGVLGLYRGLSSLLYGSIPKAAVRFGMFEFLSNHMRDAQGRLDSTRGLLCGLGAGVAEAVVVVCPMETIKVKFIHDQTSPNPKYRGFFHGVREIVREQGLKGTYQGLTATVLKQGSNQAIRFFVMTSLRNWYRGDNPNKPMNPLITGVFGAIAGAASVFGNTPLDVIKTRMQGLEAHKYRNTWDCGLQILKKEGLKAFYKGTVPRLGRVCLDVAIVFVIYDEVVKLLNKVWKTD
UniProt Q15393: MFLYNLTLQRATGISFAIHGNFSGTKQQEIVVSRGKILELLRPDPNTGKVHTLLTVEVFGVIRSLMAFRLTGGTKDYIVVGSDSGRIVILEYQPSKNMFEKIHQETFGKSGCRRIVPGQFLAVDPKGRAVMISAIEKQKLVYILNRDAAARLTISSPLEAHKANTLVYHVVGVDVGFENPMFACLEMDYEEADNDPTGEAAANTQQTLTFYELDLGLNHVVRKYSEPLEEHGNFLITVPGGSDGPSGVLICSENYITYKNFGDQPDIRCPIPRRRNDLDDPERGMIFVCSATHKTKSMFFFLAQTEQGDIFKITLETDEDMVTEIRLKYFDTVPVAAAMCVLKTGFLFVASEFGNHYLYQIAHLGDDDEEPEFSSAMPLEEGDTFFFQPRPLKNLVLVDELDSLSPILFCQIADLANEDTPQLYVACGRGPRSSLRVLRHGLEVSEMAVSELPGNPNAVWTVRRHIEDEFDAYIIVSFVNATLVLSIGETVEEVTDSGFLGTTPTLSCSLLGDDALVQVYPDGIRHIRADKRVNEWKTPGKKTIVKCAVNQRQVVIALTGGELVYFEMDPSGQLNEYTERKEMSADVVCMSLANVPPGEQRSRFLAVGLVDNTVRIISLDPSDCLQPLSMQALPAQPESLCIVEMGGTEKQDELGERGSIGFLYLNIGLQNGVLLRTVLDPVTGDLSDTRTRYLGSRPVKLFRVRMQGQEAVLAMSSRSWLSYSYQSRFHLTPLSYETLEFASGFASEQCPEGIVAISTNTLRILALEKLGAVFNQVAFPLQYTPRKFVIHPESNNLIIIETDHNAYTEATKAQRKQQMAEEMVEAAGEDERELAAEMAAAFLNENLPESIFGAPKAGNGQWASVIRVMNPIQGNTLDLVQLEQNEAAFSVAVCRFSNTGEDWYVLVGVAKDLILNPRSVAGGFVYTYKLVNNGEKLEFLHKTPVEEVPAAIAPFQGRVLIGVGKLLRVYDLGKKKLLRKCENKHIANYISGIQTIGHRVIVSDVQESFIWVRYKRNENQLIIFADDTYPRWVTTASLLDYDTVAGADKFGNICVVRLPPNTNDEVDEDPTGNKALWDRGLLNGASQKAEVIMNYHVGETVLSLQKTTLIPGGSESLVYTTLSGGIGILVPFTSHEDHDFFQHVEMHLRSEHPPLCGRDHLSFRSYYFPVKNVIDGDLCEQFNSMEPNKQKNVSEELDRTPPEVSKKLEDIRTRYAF
UniProt O75533, whole entry, looked up: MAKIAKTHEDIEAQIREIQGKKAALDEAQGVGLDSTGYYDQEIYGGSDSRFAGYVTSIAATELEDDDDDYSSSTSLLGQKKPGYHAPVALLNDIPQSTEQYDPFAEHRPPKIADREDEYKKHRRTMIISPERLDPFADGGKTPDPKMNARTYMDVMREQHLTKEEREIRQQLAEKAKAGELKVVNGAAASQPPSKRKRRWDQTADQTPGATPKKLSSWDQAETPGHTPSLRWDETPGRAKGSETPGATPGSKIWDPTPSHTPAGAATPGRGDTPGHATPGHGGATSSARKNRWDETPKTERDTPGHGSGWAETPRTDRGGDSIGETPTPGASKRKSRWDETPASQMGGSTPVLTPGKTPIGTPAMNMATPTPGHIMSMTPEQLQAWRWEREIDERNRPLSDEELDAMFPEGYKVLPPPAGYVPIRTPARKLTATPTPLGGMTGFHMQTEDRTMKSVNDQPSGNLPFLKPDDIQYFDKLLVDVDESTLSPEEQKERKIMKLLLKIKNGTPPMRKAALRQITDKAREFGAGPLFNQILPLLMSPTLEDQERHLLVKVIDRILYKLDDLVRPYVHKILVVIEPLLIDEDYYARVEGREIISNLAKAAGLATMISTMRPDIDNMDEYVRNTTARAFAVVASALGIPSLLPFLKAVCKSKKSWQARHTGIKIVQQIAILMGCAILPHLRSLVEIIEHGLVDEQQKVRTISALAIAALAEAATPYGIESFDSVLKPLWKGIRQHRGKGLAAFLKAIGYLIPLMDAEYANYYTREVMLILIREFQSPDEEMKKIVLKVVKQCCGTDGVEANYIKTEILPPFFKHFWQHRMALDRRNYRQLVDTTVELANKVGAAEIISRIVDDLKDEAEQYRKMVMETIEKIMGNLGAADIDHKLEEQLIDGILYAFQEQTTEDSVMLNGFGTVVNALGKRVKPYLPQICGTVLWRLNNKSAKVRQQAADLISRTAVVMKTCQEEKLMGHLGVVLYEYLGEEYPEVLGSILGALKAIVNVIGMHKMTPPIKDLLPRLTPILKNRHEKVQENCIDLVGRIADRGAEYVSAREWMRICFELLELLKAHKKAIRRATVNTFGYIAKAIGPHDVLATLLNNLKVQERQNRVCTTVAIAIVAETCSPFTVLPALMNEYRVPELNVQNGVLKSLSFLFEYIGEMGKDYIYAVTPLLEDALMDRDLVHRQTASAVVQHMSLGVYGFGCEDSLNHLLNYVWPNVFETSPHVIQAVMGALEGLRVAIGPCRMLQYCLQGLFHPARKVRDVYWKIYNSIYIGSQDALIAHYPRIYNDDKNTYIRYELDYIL
UniProt Q9NVA2: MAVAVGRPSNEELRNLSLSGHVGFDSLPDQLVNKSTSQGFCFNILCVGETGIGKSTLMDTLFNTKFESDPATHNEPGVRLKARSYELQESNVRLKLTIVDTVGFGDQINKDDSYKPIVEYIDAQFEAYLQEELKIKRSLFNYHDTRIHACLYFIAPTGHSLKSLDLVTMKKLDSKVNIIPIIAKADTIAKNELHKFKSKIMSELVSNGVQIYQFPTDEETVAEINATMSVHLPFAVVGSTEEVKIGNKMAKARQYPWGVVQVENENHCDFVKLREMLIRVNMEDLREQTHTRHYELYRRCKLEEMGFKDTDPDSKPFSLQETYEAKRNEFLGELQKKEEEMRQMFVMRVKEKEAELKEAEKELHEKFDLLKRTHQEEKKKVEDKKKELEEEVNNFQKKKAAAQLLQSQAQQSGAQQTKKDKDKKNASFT
UniProt O75563, whole entry, looked up: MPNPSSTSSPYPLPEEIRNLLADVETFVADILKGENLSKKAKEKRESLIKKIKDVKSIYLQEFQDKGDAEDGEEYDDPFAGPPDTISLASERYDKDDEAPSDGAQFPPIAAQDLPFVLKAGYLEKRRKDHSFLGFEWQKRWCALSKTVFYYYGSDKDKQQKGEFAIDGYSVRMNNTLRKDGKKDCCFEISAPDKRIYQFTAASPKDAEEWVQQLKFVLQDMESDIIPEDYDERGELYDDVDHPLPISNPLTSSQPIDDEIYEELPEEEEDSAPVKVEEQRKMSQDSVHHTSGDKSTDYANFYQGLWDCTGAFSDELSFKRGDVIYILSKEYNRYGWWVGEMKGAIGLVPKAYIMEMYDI
UniProt Q5VUG0: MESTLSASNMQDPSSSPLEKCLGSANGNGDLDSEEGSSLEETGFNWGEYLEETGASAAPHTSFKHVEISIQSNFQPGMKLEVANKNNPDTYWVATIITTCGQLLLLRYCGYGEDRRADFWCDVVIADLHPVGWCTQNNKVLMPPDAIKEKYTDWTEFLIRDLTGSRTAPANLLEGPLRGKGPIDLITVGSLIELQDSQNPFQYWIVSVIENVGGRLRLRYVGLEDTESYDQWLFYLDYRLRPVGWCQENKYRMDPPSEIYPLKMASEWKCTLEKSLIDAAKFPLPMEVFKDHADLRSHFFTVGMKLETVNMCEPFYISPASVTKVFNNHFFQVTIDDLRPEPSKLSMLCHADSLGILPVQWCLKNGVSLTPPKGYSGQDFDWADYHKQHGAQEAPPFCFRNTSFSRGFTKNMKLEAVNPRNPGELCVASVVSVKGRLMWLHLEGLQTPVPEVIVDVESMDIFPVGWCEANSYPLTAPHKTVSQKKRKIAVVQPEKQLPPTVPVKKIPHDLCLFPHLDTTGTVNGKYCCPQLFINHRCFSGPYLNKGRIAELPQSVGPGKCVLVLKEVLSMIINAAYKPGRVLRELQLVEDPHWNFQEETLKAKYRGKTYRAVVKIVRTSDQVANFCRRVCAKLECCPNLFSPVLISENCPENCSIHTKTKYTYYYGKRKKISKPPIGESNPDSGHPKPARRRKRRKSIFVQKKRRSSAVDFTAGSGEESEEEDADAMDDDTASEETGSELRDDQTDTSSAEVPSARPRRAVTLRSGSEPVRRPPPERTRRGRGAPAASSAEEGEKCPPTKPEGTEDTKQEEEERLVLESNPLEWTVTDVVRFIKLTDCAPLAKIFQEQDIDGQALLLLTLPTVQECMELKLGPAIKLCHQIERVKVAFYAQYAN

Compound: CC1Cc2ccccc2N1C(=O)C1CCCN(C1)C(=O)CCl (mixture of isomers) [TRIM25 ligand 11 (diastereomer mixture)]
Experiment: probe-labelled cysteine peptide fold change vs DMSO (competition) (log2 fold change); higher = less target engagement (more negative = stronger competition)
Details: THP-1, incubation time: 4 h
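Note: competitive chemoproteomic profiling in live THP-1 cells with an iodoacetamide desthiobiotin (IA-DTB) probe, comparing probe-labelled peptide intensities in compound-treated cells against DMSO-treated controls.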

Target | probe-labelled cysteine peptide fold change (10 µM) | probe-labelled cysteine peptide fold change (50 µM)
SKIV2L_Q15477_50_AVELGCTGHWELLNLPGAPESSLPHGLPPCAPDLQQEAEQLFLSSPAWLPLHGVEHSAR (UniProt Q15477) | 0.361 | 0.374
SLC25A22_Q9H936_116_EMLAGCGAGTCQVIVTTPMEMLK (UniProt Q9H936) | 0.181 | 0.173
SIL1_Q9H173_379_QVHLLPGLWEQGWCEITAHLLALPEHDAR (UniProt Q9H173) | 0.0151 | 0.218
SH3PXD2B_A1X283_115_ALIQLPPYISQCDEVLQFFETRPEDLNPPKEEHIGK (UniProt A1X283) | -0.32 | -0.311
SETX_Q7Z333_1368_LSDCESTDVKR (UniProt Q7Z333) | -0.221 | -0.293
SFMBT1_Q9UHJ3_659_IGRPPGGHSNLACALKK (UniProt Q9UHJ3) | -0.209 | -0.242
SFMBT1_Q9UHJ3_659_IGRPPGGHSNLACALK (UniProt Q9UHJ3) | -0.102 | -0.0794
SKP1_P63208_62_VIQWCTHHK (UniProt P63208) | 0.00537 | 0.0343
SETDB1_Q15047_819_CLDDIAK (UniProt Q15047) | -0.0088 | 0.117
SEPT6_Q14141_14_QVGEGCR (UniProt Q14141) | -0.0601 | -0.0828
SLC17A5_Q9NRA2_83_ACPEHSAPIK (UniProt Q9NRA2) | 0.0365 | 0.073
SEPT2_Q15019_149_VHCCFYFISPFGHGLKPLDVAFMK (UniProt Q15019) | 0.0874 | -0.0957
SIRT1_Q96EB6_326_EIYPGQFQPSLCHK (UniProt Q96EB6) | -0.0648 | -0.132
SIN3A_Q96ST3_425_PQRPSQNGCQIR (UniProt Q96ST3) | -0.0855 | 0.127
SKA3_Q8IX90_20_SLASTLDCETAR (UniProt Q8IX90) | 0.223 | 0.0824
SLC25A1_P53007_127_GLLCGLGAGVAEAVVVVCPMETIK (UniProt P53007) | -0.0544 | -0.143
SLC25A22_Q9H936_271_GVNEDTYSGILDCAR (UniProt Q9H936) | 0.166 | -0.0367
SESN1_Q9Y6P5_286_QLQECRDEEEASQEEMASR (UniProt Q9Y6P5) | -0.00479 | -0.0495
SLC12A9_Q9BXP2_911_DLGPTLLVHGVTPVTCTDL (UniProt Q9BXP2) | -0.0974 | -0.294
SLC25A5_P05141_257_GTDIMYTGTLDCWR (UniProt P05141) | 0.0551 | -0.0251
SERPINB10_P48595_68_CDPESEK (UniProt P48595) | -0.0835 | -0.134

Target | probe-labelled cysteine peptide fold change (10 µM) | probe-labelled cysteine peptide fold change (50 µM)
SLC25A36_Q96CQ1_239_TCATTIAYPHEVVR (UniProt Q96CQ1) | 0.0447 | 0.1
SIMC1_Q8NDZ2_603_QHLQQSIANMVLSCDK (UniProt Q8NDZ2) | -0.00847 | -0.0408
SHMT1_P34896_389_NTCPGDR (UniProt P34896) | 0.332 | 0.219
SF3B3_Q15393_1054_FGNICVVR (UniProt Q15393) | 0.145 | 0.173
SLC25A28_Q96A46_49_GAGGGEAGACRPPVR (UniProt Q96A46) | -0.0591 | -0.186
SIN3B_O75182_1138_TLCETVHVHGLPVTR (UniProt O75182) | 0.0309 | -0.019
SLC25A12_O75746_375_NSFDCFK (UniProt O75746) | 0.167 | 0.181
SGO1_Q5FBB7_478_CTASVNYK (UniProt Q5FBB7) | 0.000507 | -0.118
SF3B1_O75533_1250_MLQYCLQGLFHPAR (UniProt O75533) | -0.129 | 0.0917
SEPT9_Q9UHD8_531_WGTIEVENTTHCEFAYLR (UniProt Q9UHD8) | 0.0123 | -0.0856
SF3A3_Q12874_103_KHPNEICVPMSVEFEELLK (UniProt Q12874) | 0.0381 | -0.0958
SETX_Q7Z333_2265_MHPDICLFPSNYVYNR (UniProt Q7Z333) | 0.053 | -0.197
SH3KBP1_Q96B97_103_CQVAFSYLPQNDDELELK (UniProt Q96B97) | -0.3 | 0.0322
SEPT6_Q14141_301_CKLEEMGFK (UniProt Q14141) | -0.133 | -0.178
SHKBP1_Q8TBC3_491_ILALESADGHGGCSAGNDIGPYGER (UniProt Q8TBC3) | 0.00985 | -0.0671
SIRPA_P78324_331_LTCQVEHDGQPAVSK (UniProt P78324) | -0.0264 | 0.0686
SETD2_Q9BYW2_900_CGENTSPVLDAVLK (UniProt Q9BYW2) | -0.000181 | 0.0428
SLC22A15_Q8IZD6_438_NVGLGTCSMFSR (UniProt Q8IZD6) | 0.181 | 0.0289
SLAIN2_Q9P270_165_QVLDYPSPDVECAK (UniProt Q9P270) | -0.02 | -0.227
SKA1_Q96BD8_10_ASSDLEQLCSHVNEK (UniProt Q96BD8) | -0.107 | -0.0752
SEPT2_Q15019_148_VHCCFYFISPFGHGLKPLDVAFMK (UniProt Q15019) | 0.0639 | 0.119

Target | probe-labelled cysteine peptide fold change (10 µM) | probe-labelled cysteine peptide fold change (50 µM)
SF3B1_O75533_965_TCQEEK (UniProt O75533) | 0.128 | 0.134
SF3B1_O75533_933_VKPYLPQICGTVLWR (UniProt O75533) | -0.152 | -0.119
SH3GL1_Q99961_277_PREPFDLGEPEQSNGGFPCTTAPK (UniProt Q99961) | 0.0428 | -0.334
SLC16A3_O15427_161_RPMANGLAAAGSPVFLCALSPLGQLLQDR (UniProt O15427) | -0.142 | -0.136
SEPT9_Q9UHD8_248_SQEATEAAPSCVGDMADTPR (UniProt Q9UHD8) | 0.0287 | -0.157
SETX_Q7Z333_688_LEDHLLAGSCLK (UniProt Q7Z333) | 0.0862 | -0.131
SF3A1_Q15459_244_EVLDQVCYR (UniProt Q15459) | -0.0708 | -0.0869
SLC25A24_Q6NUK1_330_TGQYSGIYDCAK (UniProt Q6NUK1) | -0.0738 | -0.0691
SEPT11_Q9NVA2_41_STSQGFCFNILCVGETGIGK (UniProt Q9NVA2) | 0.108 | 0.113
SHCBP1_Q8NEM2_591_IQTSGEPDVAERVDLEELIECATGK (UniProt Q8NEM2) | -0.219 | -0.443
SHPRH_Q149N8_1229_NVIESATVCHLRPAR (UniProt Q149N8) | 0.0468 | 0.000376
SETD1B_Q9UPS6_1908+1912_FINHSCNPNCYAK (UniProt Q9UPS6) | 0.066 | 0.17
SF3B3_Q15393_1179_NVIDGDLCEQFNSMEPNK (UniProt Q15393) | -0.138 | -0.255
SLAIN1_Q8ND83_313_KGTCSDQEYDQYSLEDEEEFDHLPPPQPR (UniProt Q8ND83) | -0.084 | -0.0386
SKAP2_O75563_186_DCCFEISAPDK (UniProt O75563) | 0.239 | 0.128
SLC25A1_P53007_141_GLLCGLGAGVAEAVVVVCPMETIK (UniProt P53007) | 0.0385 | 0.0556
SHKBP1_Q8TBC3_550_SVDGSPTTAFTVLECEGSR (UniProt Q8TBC3) | 0.0694 | 0.0857
SGTA_O43765_148_LGNYAGAVQDCER (UniProt O43765) | -0.0452 | 0.109
SLC25A3_Q00325_136_GWAPTFLGYSMQGLCK (UniProt Q00325) | -0.0136 | 0.22
SF3B3_Q15393_340_YFDTVPVAAAMCVLK (UniProt Q15393) | -0.126 | -0.183
SGF29_Q96ES7_74_ADAEAECNILR (UniProt Q96ES7) | 0.00272 | 0.133

Target | probe-labelled cysteine peptide fold change (10 µM) | probe-labelled cysteine peptide fold change (50 µM)
SKA1_Q96BD8_29_NCGQEPTLK (UniProt Q96BD8) | -0.0792 | 0.0171
SEPT11_Q9NVA2_46_STSQGFCFNILCVGETGIGK (UniProt Q9NVA2) | -0.0542 | -0.0173
SHC1_P29353_212_KPCSRPLSSILGR (UniProt P29353) | -0.185 | -0.0448
SFMBT2_Q5VUG0_426_NPGELCVASVVSVK (UniProt Q5VUG0) | 0.309 | 0.165
SKIV2L_Q15477_877_VFTTLVLCDKPLSQDPQDR (UniProt Q15477) | 0.105 | 0.0401
SHOC2_Q9UQ13_260_EIGNCTQITNLDLQHNELLDLPDTIGNLSSLSR (UniProt Q9UQ13) | -0.206 | 0.0115
SETDB1_Q15047_385_RCEWIYR (UniProt Q15047) | 0.156 | 0.176
SLC25A1_P53007_127+141_GLLCGLGAGVAEAVVVVCPMETIK (UniProt P53007) | 0.12 | 0.061
SHMT2_P34897_241_EVCDEVK (UniProt P34897) | 0.0438 | 0.123
SH3BP5L_Q7L8J4_178_NRLDPTWQEMLNHATCK (UniProt Q7L8J4) | -0.0336 | -0.0872
SLC25A4_P12235_160_EFHGLGDCIIK (UniProt P12235) | -0.0707 | 0.0121
SHTN1_A0MZ66_550_KLEGCTSSK (UniProt A0MZ66) | -0.0607 | -0.213
SF3A3_Q12874_408_LHGLNINYNCEICGNYTYR (UniProt Q12874) | -0.209 | -0.00794
SF3A3_Q12874_408+411_LHGLNINYNCEICGNYTYR (UniProt Q12874) | 0.104 | 0.199
SKIV2L_Q15477_719_GLDPTGTVILLCK (UniProt Q15477) | 0.0408 | 0.0411
SF1_Q15637_282+292_CGGAGHIASDCK (UniProt Q15637) | -0.0927 | -0.0122
SFMBT2_Q5VUG0_511_KIPHDLCLFPHLDTTGTVNGK (UniProt Q5VUG0) | -0.251 | -0.114
SKAP2_O75563_185+186_DCCFEISAPDKR (UniProt O75563) | 0.0134 | 0.18
SIK3_Q9Y2K2_655_QLQQECEQLQK (UniProt Q9Y2K2) | 0.0351 | 0.0789
